Data as given in PubChem BioAssay AID1259424 (University of Nebraska Medical Center, 2018).
Purpose: 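Rank knockdowns across the genome by resemblance to the KSR1 depletion profile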 (primary screen). Cell system: human HCT116 colon cancer cells. Knock-down reagent: siRNA pool against human genes, 50 nM. Measurement: 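Six signature mRNAs by branched-DNA multiplex assay, scaled to two housekeeping genes and non-targeting median, log2; matched to mean KSR1 knockdown profile by Pearson correlation and euclidean distance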. Reading the numbers: mean correlation with KSR1 profile and KSR1 correlation: higher = expression change more like KSR1 knockdown; mean distance from KSR1 profile: higher = expression change less like KSR1 knockdown.
The deposit covers about 14,000 reagents; this is a random part of them. 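Higher correlation or smaller distance means closer resemblance to KSR1 loss; control wells, including KSR1 knockdowns, recur on many plates.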 The record does not give: the time to read-out.

no.	target gene	PubChem SID	mean correlation with KSR1 profile	mean distance from KSR1 profile	KSR1 correlation, replicate 1	KSR1 correlation, replicate 2	KSR1 correlation, replicate 3
1	CTAG2 (cancer/testis antigen 2)	SID364001936	0.37	1.24	0.282	0.158	-0.12
2	CHAT (choline O-acetyltransferase)	SID364001735	0.115	1.96	-0.21	-0.287	0.402
3	KIAA0040	SID363999013	0.0742	1.69	0.0852	0.254	0.034
4	PSKH2 (protein serine kinase H2)	SID364004331	-0.192	2.73	-0.0836	0.0444	-0.442
5	NSMF	SID363999559	0.186	1.55	0.291	0.182	-0.0138
6	CSRNP3 (cysteine and serine rich nuclear protein 3)	SID364003192	0.182	1.74	0.221	0.0869	-0.0683
7	PLXND1 (plexin D1)	SID363999304	0.225	1.12	0.11	0.0782	0.283
8	TBPL1 (TATA-box binding protein like 1)	SID363995816	-0.225	1.74	-0.185	-0.187	-0.0392
9	SENP1 (SUMO specific peptidase 1)	SID363998931	-0.0107	1.3	-0.0784	0.0657	0.0355
10	TM4SF5 (transmembrane 4 L six family member 5)	SID363995017	0.42	1.34	0.361	0.56	0.273
11	UQCRB (ubiquinol-cytochrome c reductase binding protein)	SID363997116	0.117	1.51	0.0352	-0.0814	0.368
12	KLRB1 (killer cell lectin like receptor B1)	SID363993457	-0.58	2.34	-0.559	-0.571	-0.524
13	GAS8-AS1 (GAS8 antisense RNA 1)	SID363992499	0.147	2.4	0.238	0.105	0.0372
14	PPP4R3B (protein phosphatase 4 regulatory subunit 3B)	SID364001713	-0.392	2.14	0.0864	-0.652	-0.526
15	RHCE (Rh blood group CcEe antigens)	SID364001721	0.481	2.1	0.223	0.647	0.472
16	FARSB (phenylalanyl-tRNA synthetase subunit beta)	SID363996577	0.331	2.83	0.405	0.503	0.176
17	ZNF528 (zinc finger protein 528)	SID364003974	0.841	1.03	0.756	0.797	0.751
18	FFAR1 (free fatty acid receptor 1)	SID363996220	0.103	2.87	0.0738	0.201	0.0513
19	TRMT11 (tRNA methyltransferase 11)	SID364002200	-0.961	5.22	-0.808	-0.353	-0.824
20	F2R (coagulation factor II thrombin receptor)	SID363993204	0.617	3.08	0.618	0.804	0.15
21	PLCB1 (phospholipase C beta 1)	SID363999355	-0.305	1.55	-0.262	-0.415	-0.0868
22	KNTC1 (kinetochore associated 1)	SID363999047	-0.217	1.67	-0.0249	-0.271	-0.118
23	CEBPE (CCAAT enhancer binding protein epsilon)	SID363993023	-0.43	2.98	-0.407	-0.553	-0.467
24	DACT1 (dishevelled binding antagonist of beta catenin 1)	SID364000264	0.118	2.75	0.133	-0.107	0.0494
25	FKBP11 (FKBP prolyl isomerase 11)	SID364000222	-0.386	2.49	-0.537	0.359	-0.217
26	RALGPS1 (Ral GEF with PH domain and SH3 binding motif 1)	SID363999001	-0.545	1.79	-0.63	-0.449	-0.257
27	CNTN1 (contactin 1)	SID363993057	0.229	1.46	0.38	0.272	0.234
28	SCN3A (sodium voltage-gated channel alpha subunit 3)	SID363997675	0.0436	1.3	-0.0787	-0.0851	0.149

8 entries from above in another layout:
target gene,PubChem SID,mean correlation with KSR1 profile,mean distance from KSR1 profile,"KSR1 correlation, replicate 1","KSR1 correlation, replicate 2","KSR1 correlation, replicate 3"
FFAR1 (free fatty acid receptor 1),SID363996220,0.103,2.87,0.0738,0.201,0.0513
TRMT11 (tRNA methyltransferase 11),SID364002200,-0.961,5.22,-0.808,-0.353,-0.824
F2R (coagulation factor II thrombin receptor),SID363993204,0.617,3.08,0.618,0.804,0.15
PLCB1 (phospholipase C beta 1),SID363999355,-0.305,1.55,-0.262,-0.415,-0.0868
KNTC1 (kinetochore associated 1),SID363999047,-0.217,1.67,-0.0249,-0.271,-0.118
CEBPE (CCAAT enhancer binding protein epsilon),SID363993023,-0.43,2.98,-0.407,-0.553,-0.467
DACT1 (dishevelled binding antagonist of beta catenin 1),SID364000264,0.118,2.75,0.133,-0.107,0.0494
FKBP11 (FKBP prolyl isomerase 11),SID364000222,-0.386,2.49,-0.537,0.359,-0.217

The listing continues:
no.	target gene	PubChem SID	mean correlation with KSR1 profile	mean distance from KSR1 profile	KSR1 correlation, replicate 1	KSR1 correlation, replicate 2	KSR1 correlation, replicate 3
29	TMEM208 (transmembrane protein 208)	SID363998643	-0.693	2.37	-0.767	-0.722	-0.718
30	SPCS2 (signal peptidase complex subunit 2)	SID363999082	-0.0623	1.63	-0.156	0.0743	0.251
31	ZNF174 (zinc finger protein 174)	SID363994550	-0.478	2.35	-0.419	-0.352	-0.56
32	BIRC7 (baculoviral IAP repeat containing 7)	SID364002384	-0.00489	2.22	0.0479	-0.00679	-0.146
33	PEX12 (peroxisomal biogenesis factor 12)	SID363991618	-0.0493	2.45	-0.362	-0.0668	0.0591
34	DTX2 (deltex E3 ubiquitin ligase 2)	SID364001885	0.667	0.648	0.694	0.641	0.637
35	STMN4 (stathmin 4)	SID364003447	0.648	1.23	0.286	0.147	0.77
36	MRPL38 (mitochondrial ribosomal protein L38)	SID364003997	0.834	0.949	0.532	0.476	0.759
37	ERMARD (ER membrane associated RNA degradation)	SID364005575	0.234	0.718	-0.495	0.0361	0.25
38	CPO (carboxypeptidase O)	SID364004822	0.0345	3.06	0.0494	0.641	-0.231
39	RABAC1 (Rab acceptor 1)	SID363997234	0.643	1.15	0.499	0.76	0.729
40	OXT (oxytocin/neurophysin I prepropeptide)	SID363992200	0.444	1.18	0.411	0.433	0.105
41	PRB1 (proline rich protein BstNI subfamily 1)	SID363995978	-0.125	1.62	-0.112	-0.232	-0.213
42	HTT (huntingtin)	SID363993317	0.467	3.18	0.0833	0.259	0.618
43	CAMP (cathelicidin antimicrobial peptide)	SID363995333	0.0738	2.35	0.121	0.151	-0.117
44	SCRN1 (secernin 1)	SID363999093	-0.194	2.58	-0.266	-0.15	0.29
45	BAZ1B (bromodomain adjacent to zinc finger domain 1B)	SID364002612	0.309	3.34	-0.0357	0.206	0.495
46	CA14 (carbonic anhydrase 14)	SID363998061	-0.537	2.41	-0.349	-0.556	-0.519
47	RAPGEF6 (Rap guanine nucleotide exchange factor 6)	SID364000046	-0.0683	5.26	0.2	0.0741	0.0129
48	FANCG (FA complementation group G)	SID363995597	0.0848	2.41	0.229	0.182	0.00723
49	CA11 (carbonic anhydrase 11 (inactive))	SID363992502	-0.215	2.04	-0.261	-0.143	-0.405
50	AQP8 (aquaporin 8)	SID363992460	-0.252	2.27	-0.333	-0.289	-0.33
